Source: the supplement of paper PMC10849652
The list shows a part of the results.

Protein sequences, listed by entry. Tags and fused reporters are not part of them. Lines headed by an entry give the natural chain unless they say otherwise; changes in a name come on top.
UniProt Q9UHY1: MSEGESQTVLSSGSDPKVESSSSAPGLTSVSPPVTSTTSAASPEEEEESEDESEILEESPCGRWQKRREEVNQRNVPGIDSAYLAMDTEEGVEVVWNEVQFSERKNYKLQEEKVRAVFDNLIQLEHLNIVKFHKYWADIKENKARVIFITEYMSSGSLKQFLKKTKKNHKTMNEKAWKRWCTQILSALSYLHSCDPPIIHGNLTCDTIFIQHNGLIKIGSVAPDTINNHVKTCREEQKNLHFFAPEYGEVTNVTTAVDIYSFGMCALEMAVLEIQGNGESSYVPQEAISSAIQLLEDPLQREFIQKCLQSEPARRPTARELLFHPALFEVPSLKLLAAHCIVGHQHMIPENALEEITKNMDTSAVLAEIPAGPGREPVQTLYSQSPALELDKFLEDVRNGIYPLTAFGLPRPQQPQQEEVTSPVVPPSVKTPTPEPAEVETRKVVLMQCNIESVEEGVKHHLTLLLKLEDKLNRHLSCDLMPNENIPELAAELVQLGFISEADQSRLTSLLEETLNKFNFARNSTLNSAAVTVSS
UniProt P78316: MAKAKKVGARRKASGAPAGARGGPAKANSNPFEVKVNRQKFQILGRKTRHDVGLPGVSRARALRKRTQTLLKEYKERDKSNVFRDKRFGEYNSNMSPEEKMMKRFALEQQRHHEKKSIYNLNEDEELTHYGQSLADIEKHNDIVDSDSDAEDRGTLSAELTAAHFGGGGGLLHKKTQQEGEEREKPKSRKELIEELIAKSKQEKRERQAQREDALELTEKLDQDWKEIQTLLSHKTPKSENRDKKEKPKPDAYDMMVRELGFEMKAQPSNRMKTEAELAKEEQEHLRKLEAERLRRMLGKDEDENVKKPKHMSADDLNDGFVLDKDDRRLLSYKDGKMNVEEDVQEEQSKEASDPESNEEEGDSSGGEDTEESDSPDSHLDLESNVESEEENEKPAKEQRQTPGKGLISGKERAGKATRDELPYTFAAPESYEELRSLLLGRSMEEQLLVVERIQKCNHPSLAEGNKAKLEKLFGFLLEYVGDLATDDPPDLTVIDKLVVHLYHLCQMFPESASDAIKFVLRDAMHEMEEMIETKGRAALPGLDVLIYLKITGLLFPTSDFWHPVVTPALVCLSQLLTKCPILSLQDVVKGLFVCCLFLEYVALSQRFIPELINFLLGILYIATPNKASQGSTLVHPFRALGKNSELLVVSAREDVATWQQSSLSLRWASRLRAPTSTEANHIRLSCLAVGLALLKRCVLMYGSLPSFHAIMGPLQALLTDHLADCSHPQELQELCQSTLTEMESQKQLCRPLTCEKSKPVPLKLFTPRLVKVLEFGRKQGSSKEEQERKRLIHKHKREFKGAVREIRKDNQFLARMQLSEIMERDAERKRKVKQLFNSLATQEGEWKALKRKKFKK
UniProt P25208: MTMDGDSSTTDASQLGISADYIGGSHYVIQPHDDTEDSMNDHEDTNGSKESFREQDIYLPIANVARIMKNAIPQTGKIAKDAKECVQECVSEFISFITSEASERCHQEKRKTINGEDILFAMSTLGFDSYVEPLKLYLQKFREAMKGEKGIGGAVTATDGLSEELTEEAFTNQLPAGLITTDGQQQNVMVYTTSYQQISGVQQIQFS
UniProt Q9UMS0: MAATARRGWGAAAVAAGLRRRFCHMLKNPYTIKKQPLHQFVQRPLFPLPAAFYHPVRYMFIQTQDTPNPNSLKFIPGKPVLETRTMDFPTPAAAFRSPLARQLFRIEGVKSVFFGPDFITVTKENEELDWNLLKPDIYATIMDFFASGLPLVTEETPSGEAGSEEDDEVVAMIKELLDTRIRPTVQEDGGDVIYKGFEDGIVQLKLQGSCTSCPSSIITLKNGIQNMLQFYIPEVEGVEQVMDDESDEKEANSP
UniProt Q9UMX5: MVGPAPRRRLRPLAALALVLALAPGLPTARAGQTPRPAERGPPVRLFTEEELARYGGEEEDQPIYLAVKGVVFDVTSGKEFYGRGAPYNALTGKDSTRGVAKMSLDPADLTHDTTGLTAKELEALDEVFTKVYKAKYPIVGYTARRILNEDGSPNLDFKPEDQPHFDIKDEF
UniProt Q92636: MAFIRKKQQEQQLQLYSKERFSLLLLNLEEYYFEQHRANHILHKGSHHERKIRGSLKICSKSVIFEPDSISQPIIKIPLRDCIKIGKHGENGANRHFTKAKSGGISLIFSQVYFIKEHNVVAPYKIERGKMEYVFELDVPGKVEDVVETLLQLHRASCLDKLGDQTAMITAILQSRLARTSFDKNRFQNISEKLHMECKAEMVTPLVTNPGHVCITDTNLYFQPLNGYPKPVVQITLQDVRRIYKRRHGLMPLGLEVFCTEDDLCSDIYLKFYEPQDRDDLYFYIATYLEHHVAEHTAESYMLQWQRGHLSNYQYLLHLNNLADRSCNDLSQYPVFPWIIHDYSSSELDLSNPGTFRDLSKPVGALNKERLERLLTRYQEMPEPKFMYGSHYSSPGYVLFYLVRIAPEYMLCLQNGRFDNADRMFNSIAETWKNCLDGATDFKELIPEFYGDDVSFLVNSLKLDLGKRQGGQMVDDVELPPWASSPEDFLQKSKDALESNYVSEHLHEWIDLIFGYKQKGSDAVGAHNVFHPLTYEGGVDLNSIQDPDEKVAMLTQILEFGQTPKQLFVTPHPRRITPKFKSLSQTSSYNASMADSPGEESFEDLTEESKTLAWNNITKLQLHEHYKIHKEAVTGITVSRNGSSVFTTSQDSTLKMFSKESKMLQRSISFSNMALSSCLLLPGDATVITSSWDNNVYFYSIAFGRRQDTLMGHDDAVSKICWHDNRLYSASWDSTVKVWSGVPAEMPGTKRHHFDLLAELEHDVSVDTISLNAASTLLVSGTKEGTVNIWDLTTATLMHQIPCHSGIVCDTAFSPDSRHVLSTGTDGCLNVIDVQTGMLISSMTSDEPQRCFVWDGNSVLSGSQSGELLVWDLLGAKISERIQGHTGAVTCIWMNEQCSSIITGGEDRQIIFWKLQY
UniProt Q15653: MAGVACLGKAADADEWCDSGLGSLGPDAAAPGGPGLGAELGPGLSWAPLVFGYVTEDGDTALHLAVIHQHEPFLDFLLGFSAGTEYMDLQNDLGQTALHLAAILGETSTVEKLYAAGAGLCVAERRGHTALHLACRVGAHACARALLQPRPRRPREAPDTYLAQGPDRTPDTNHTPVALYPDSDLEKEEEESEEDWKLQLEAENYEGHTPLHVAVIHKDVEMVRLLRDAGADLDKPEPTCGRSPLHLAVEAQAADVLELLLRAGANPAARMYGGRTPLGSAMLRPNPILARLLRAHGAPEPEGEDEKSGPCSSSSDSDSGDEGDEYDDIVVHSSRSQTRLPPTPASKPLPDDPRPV
UniProt Q9Y639: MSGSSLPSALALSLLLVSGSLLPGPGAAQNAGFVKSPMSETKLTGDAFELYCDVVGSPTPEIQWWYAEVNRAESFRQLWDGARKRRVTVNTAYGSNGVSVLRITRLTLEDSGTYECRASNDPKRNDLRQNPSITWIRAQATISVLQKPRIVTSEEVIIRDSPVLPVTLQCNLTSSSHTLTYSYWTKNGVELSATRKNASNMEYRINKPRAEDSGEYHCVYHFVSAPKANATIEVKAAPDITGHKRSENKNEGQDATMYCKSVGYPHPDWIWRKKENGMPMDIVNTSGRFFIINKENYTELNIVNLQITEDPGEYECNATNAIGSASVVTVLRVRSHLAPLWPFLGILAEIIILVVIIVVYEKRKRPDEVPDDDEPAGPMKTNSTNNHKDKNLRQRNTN
UniProt P18615, whole entry, looked up: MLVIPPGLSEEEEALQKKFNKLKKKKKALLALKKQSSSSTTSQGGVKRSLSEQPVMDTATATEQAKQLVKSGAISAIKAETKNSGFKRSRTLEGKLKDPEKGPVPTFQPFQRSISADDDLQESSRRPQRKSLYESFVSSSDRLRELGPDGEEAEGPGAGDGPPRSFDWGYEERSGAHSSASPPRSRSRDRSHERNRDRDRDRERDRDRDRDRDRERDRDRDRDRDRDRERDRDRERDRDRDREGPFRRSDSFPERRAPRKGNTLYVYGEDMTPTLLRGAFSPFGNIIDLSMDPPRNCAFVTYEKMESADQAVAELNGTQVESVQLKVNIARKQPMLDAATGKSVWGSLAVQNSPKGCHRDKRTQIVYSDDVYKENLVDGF
UniProt Q9BS92: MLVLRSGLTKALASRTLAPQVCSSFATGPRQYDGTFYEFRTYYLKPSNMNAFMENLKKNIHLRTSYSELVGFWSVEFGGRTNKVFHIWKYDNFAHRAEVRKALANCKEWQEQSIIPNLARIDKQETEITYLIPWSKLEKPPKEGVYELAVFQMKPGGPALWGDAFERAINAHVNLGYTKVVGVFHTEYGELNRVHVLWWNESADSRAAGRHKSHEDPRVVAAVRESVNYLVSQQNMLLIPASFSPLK
UniProt Q9BPW8: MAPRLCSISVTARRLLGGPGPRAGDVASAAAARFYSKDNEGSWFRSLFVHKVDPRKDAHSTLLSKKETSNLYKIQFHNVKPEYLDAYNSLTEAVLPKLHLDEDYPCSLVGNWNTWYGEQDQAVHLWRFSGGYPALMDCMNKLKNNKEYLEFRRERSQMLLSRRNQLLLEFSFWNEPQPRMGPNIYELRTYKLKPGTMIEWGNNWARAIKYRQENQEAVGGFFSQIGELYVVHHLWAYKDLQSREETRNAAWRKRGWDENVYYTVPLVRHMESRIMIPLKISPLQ
UniProt P22392, whole entry, looked up: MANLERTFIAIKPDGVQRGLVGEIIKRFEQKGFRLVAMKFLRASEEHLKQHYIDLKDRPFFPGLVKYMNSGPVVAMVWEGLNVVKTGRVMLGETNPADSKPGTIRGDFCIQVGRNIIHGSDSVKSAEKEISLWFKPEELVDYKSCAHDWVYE
UniProt Q7RTP0: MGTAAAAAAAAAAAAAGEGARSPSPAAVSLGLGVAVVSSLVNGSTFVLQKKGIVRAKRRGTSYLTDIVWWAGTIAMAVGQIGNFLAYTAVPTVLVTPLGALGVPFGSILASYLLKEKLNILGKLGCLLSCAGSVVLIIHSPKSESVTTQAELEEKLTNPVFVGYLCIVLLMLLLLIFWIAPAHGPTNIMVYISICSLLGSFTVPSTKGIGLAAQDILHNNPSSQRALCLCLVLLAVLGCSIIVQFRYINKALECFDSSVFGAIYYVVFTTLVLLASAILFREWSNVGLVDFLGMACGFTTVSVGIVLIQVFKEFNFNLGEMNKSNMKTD
UniProt Q14934: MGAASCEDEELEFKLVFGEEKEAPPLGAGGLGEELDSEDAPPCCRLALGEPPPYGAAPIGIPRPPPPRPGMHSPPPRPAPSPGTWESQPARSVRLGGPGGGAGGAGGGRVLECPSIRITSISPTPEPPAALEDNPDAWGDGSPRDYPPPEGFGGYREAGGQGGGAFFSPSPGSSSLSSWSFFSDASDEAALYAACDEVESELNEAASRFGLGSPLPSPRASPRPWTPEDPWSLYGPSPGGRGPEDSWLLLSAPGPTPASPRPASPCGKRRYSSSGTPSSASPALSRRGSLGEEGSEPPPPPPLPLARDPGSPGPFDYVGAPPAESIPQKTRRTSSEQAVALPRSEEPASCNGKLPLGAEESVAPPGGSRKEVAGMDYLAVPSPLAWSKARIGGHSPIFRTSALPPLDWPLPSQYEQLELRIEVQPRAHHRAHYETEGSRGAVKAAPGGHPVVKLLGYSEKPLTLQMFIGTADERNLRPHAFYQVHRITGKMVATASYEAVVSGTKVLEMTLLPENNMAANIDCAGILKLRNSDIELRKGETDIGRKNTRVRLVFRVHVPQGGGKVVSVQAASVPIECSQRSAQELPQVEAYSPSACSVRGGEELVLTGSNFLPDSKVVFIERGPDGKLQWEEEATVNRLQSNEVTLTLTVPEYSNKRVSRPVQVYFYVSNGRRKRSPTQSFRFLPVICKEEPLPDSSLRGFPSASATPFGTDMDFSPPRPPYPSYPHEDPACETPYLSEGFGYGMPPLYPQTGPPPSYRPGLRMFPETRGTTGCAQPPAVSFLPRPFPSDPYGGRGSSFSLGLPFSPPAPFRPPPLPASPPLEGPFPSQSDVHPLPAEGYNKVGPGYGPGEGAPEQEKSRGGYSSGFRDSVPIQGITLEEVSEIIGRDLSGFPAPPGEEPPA
UniProt Q9UGY1: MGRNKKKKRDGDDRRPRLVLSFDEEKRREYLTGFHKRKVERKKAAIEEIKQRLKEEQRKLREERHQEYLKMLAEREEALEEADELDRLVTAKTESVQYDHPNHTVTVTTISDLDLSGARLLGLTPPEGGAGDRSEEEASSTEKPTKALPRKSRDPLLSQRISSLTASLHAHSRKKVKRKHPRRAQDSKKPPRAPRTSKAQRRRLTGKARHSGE
UniProt Q9UNZ2: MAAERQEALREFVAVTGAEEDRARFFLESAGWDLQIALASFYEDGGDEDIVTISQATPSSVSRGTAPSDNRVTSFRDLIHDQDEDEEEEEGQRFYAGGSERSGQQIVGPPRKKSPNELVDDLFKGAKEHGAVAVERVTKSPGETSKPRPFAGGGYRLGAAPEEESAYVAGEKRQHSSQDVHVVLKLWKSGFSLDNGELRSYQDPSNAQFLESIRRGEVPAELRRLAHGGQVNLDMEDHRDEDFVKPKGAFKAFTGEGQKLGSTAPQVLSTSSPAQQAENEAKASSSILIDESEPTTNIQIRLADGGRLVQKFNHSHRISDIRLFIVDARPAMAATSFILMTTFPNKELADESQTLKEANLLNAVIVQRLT

Experiments:
Experiment in all cases: log2 fold change, soluble protein after heating vs DMSO (PISA); higher = thermal stabilisation; K562 cells, 10 uM, 30 min; active = over 0.2 and 3.5 SD of the protein, either way, in both replicates (recomputed)
[1] = compound: NC(=O)Nc1cc(-c2cccc(F)c2)sc1C(=O)N[C@H]1CCCNC1
Procedure, shortened: (§1)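 Soluble protein was defined as the supernatant after 21,000xg for 90 min. It came from K562 cells at 2×10^6 cells/mL given 10 μM compound for 30 min, heated in aliquots for 3 min across 48°C-58°C, pooled, and extracted in PBS with 0.5% NP-40 at 4°C, and was quantified by TMTpro 16plex LC-MS/MS with equalised channel sums. Thermal stability against control samples, from duplicates, is reported as log2 fold change.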

[2] = compound: NC(=O)c1cnc(N[C@@H]2CCCC[C@@H]2N)nc1Nc1cccc(-n2nccn2)c1
Procedure, shortened: as §1

[3] = compound: NC1(c2ccc(-c3nc4ccn5c(=O)[nH]nc5c4cc3-c3ccccc3)cc2)CCC1
Procedure, shortened: as §1

[4] = compound: NCC(=O)Nc1ccc(-n2nc(C(F)(F)F)cc2-c2ccc3c(ccc4ccccc43)c2)cc1
Procedure, shortened: as §1

entinostat = compound: Nc1ccccc1NC(=O)c1ccc(CNC(=O)OCc2cccnc2)cc1 [entinostat]
Procedure, shortened: as §1

vorinostat = compound: O=C(CCCCCCC(=O)Nc1ccccc1)NO [vorinostat]
Procedure, shortened: as §1

citarinostat = compound: O=C(CCCCCCNC(=O)c1cnc(N(c2ccccc2)c2ccccc2Cl)nc1)NO [citarinostat]
Procedure, shortened: as §1

silmitasertib = compound: O=C(O)c1ccc2c(c1)nc(Nc1cccc(Cl)c1)c1ccncc12 [silmitasertib]
Procedure, shortened: as §1

[5] = compound: O=C1NC(=O)C(c2cnc3ccccn23)=C1c1cn2c3c(cc(F)cc13)CN(C(=O)N1CCCCC1)CC2
Procedure, shortened: as §1

[6] = compound: c1cc(OCCN2CCCCC2)cc(-c2n[nH]c3ccc(-c4nnc[nH]4)cc23)c1
Procedure, shortened: as §1

entospletinib = compound: c1cn2cc(-c3ccc4cn[nH]c4c3)nc(Nc3ccc(N4CCOCC4)cc3)c2n1 [entospletinib]
Procedure, shortened: as §1

Measured: log2 fold change

NRBP1 (UniProt Q9UHY1)
inactive: [1] -0.029 | [2] -0.037 | [3] -0.054 | [4] -0.033 | entinostat 0.011 | vorinostat -0.001 | citarinostat 0.037 | silmitasertib 0.002 | [5] -0.055 | [6] -0.002 | entospletinib 0.004

NOP14 (UniProt P78316)
inactive: [1] 0.088 | [2] -0.024 | [3] 0.181 | [4] 0.014 | entinostat -0.073 | vorinostat 0.084 | silmitasertib 0.088 | [5] 0.067

NHLRC3 (UniProt Q5JS37)
inactive: [1] 0.074 | [2] 0.089 | [3] -0.049 | entinostat -0.055 | vorinostat 0.027 | citarinostat -0.021 | silmitasertib -0.044 | [5] 0.091 | [6] 0.087 | entospletinib 0.037

NSD1 (UniProt Q96L73)
inactive: [1] -0.038 | [2] 0.132 | [3] -0.012 | entinostat -0.032 | vorinostat -0.087 | citarinostat 0.078 | silmitasertib 0.061 | [6] -0.037 | entospletinib -0.056

NEMF (UniProt O60524)
inactive: [1] 0.097 | [2] 0.045 | [3] 0.239 | [4] 0.098 | entinostat 0.03 | vorinostat 0.015 | citarinostat -0.077 | silmitasertib 0.164 | [5] 0.227 | [6] -0.243 | entospletinib 0.045

Fetched one by one from the list above, 2 records:
NEMF (UniProt O60524)
inactive: [1] 0.097 | [2] 0.045 | [3] 0.239 | [4] 0.098 | entinostat 0.03 | vorinostat 0.015 | citarinostat -0.077 | silmitasertib 0.164 | [5] 0.227 | [6] -0.243 | entospletinib 0.045

NOP14 (UniProt P78316)
inactive: [1] 0.088 | [2] -0.024 | [3] 0.181 | [4] 0.014 | entinostat -0.073 | vorinostat 0.084 | silmitasertib 0.088 | [5] 0.067

Later entries

NFYB (UniProt P25208)
inactive: [1] -0.022 | [2] 0.102 | [3] -0.074 | [4] 0.069 | entinostat -0.001 | vorinostat -0.038 | citarinostat -0.006 | silmitasertib 0.043 | [6] 0.033

NR2F2 (UniProt P24468)
inactive: [1] 0.029 | [2] -0.1 | [3] -0.135 | [4] -0.032 | entinostat -0.01 | vorinostat -0.061 | citarinostat -0.038 | silmitasertib -0.031 | [5] -0.002 | [6] -0.049 | entospletinib -0.013

NFU1 (UniProt Q9UMS0)
inactive: [1] 0.008 | [2] -0.013 | [3] -0.035 | [4] -0.041 | entinostat 0.064 | vorinostat 0 | citarinostat 0.047 | silmitasertib -0.026 | [5] -0.116 | [6] 0.037 | entospletinib -0.005

NPM3 (UniProt O75607)
inactive: [1] 0.029 | [2] 0.02 | [3] 0.216 | [4] 0.017 | entinostat -0.019 | vorinostat -0.023 | citarinostat -0.059 | silmitasertib 0.137 | [6] -0.101

NENF (UniProt Q9UMX5)
inactive: [1] 0.036 | [2] 0.018 | [3] 0.058 | [4] 0.009 | entinostat 0.001 | vorinostat -0.048 | citarinostat 0.005 | silmitasertib -0.003 | [5] -0.042 | [6] -0.048 | entospletinib 0.012

NSMAF (UniProt Q92636)
inactive: [1] -0.018 | [2] -0.107 | [3] -0.129 | [4] -0.18 | entinostat 0.021 | vorinostat -0.067 | citarinostat 0.041 | silmitasertib -0.01 | [5] -0.022 | [6] -0.056 | entospletinib 0.017

NOL6 (UniProt Q9H6R4)
inactive: [1] 0.117 | [2] 0.076 | [3] 0.325 | [4] 0.015 | entinostat 0.068 | vorinostat 0.088 | silmitasertib 0.303 | [5] 0.099

NFKBIB (UniProt Q15653)
inactive: [1] -0.06 | [2] -0.087 | [3] -0.083 | [4] 0.017 | entinostat -0.002 | vorinostat 0.017 | citarinostat 0.061 | silmitasertib 0.054 | [5] -0.083 | [6] -0.038 | entospletinib -0.009

NLRC3 isoform 2 (UniProt Q7RTR2)
inactive: [1] -0.494 | [2] -0.334 | [3] -0.206 | [4] -0.359 | entinostat -0.268 | citarinostat -0.058 | silmitasertib 0.306 | [5] -0.551 | [6] -0.131 | entospletinib 0.037

NPTN (UniProt Q9Y639)
inactive: [1] 0.08 | [2] 0.051 | [3] 0.041 | [4] 0.087 | entinostat -0.158 | vorinostat -0.006 | citarinostat -0.011 | silmitasertib 0 | [5] 0.079 | [6] -0.058 | entospletinib 0.012

NMI (UniProt Q13287)
inactive: [1] -0.004 | [2] -0.033 | [3] -0.022 | [4] -0.035 | entinostat 0.002 | vorinostat -0.003 | citarinostat 0.002 | silmitasertib 0.001 | [5] -0.038 | [6] -0.01 | entospletinib -0.013

NELFE isoform 3 (UniProt P18615)
inactive: [1] 0.117 | [2] -0.01 | [3] 0.002 | [4] -0.044 | entinostat 0.019 | vorinostat 0.053 | citarinostat 0.01 | silmitasertib 0.009 | [5] 0.043 | [6] -0.034 | entospletinib -0.035

NIFK (UniProt Q9BYG3)
inactive: [1] 0.014 | [2] 0.067 | [3] 0.097 | [4] 0.243 | entinostat -0.085 | vorinostat -0.122 | citarinostat -0.051 | silmitasertib 0.171 | [5] 0.338 | [6] -0.124 | entospletinib -0.03

NOC2L (UniProt Q9Y3T9)
inactive: [1] -0.021 | [2] -0.154 | [3] 0.011 | [4] -0.171 | entinostat -0.005 | vorinostat 0.022 | citarinostat -0.058 | silmitasertib 0.032 | [5] -0.111 | [6] -0.059 | entospletinib 0

NPC1L1 (UniProt Q9UHC9)
inactive: [1] 0.011 | [2] -0.038 | [3] -0.104 | [4] -0.024 | entinostat -0.011 | citarinostat 0.036 | silmitasertib -0.028 | [6] 0.054

NIPSNAP3B (UniProt Q9BS92)
inactive: [1] 0.279 | [2] 0.011 | [3] -0.069 | [4] 0.053 | entinostat -0.001 | vorinostat -0.064 | citarinostat 0.137 | silmitasertib -0.022 | [6] -0.09

NIPSNAP1 (UniProt Q9BPW8)
inactive: [1] 0.055 | [2] -0.015 | [3] -0.02 | [4] -0.027 | entinostat -0.014 | vorinostat -0.061 | citarinostat 0.062 | silmitasertib -0.108 | [5] -0.045 | [6] 0.046 | entospletinib 0.063

NME2 isoform 2 (UniProt P22392)
inactive: [1] -0.024 | [2] -0.031 | [3] 0.051 | [4] -0.015 | entinostat -0.048 | vorinostat -0.03 | citarinostat 0.027 | silmitasertib 0.014 | [5] -0.04 | [6] -0.034 | entospletinib 0.01

NIPA1 (UniProt Q7RTP0)
inactive: [1] -0.014 | [2] -0.011 | [3] -0.083 | [4] 0.012 | entinostat 0.076 | citarinostat -0.101 | silmitasertib 0.028 | [6] -0.056 | entospletinib -0.117

NFATC4 isoform 2 (UniProt Q14934)
inactive: [1] -0.149 | [2] -0.064 | [3] -0.379 | [4] -0.193 | entinostat 0.013 | vorinostat 0.025 | citarinostat -0.156 | silmitasertib 0.073 | [5] -0.073 | [6] -0.076 | entospletinib -0.117

NR2C1 (UniProt P13056)
inactive: [1] -0.096 | [2] -0.055 | [3] 0.022 | [4] 0.503 | entinostat -0.023 | silmitasertib -0.082 | [5] 0.012

NOL12 (UniProt Q9UGY1)
inactive: [1] 0.151 | [2] 0.159 | [3] 0.281 | [4] 0.197 | entinostat -0.017 | vorinostat -0.104 | silmitasertib 0.228 | [5] 0.375

NSFL1C isoform 5 (UniProt Q9UNZ2)
inactive: [1] 0.101 | [2] -0.038 | [3] -0.031 | [4] -0.042 | entinostat 0.044 | vorinostat -0.026 | citarinostat -0.009 | silmitasertib -0.001 | [5] 0.057 | [6] 0.011 | entospletinib -0.012

NOSTRIN isoform 4 (UniProt Q8IVI9)
inactive: [1] -0.057 | [2] -0.132 | [3] 0.101 | entinostat 0.132 | citarinostat -0.021 | silmitasertib 0.232 | [6] -0.062 | entospletinib -0.061

NQO2 (UniProt P16083)
inactive: [1] 0.001 | [2] 0.002 | [3] 0.039 | [4] 0.031 | entinostat 0.022 | vorinostat -0.04 | citarinostat 0.002 | silmitasertib 0.016 | [5] -0.042 | [6] -0.007 | entospletinib 0.006
